Data as given in the supplement of paper PMC10849652.
Some of the results follow.

Amino acid sequences for entries named in this document (tags omitted). A change or cut given only in a name is not applied to a line headed by its entry.
UniProt P63313: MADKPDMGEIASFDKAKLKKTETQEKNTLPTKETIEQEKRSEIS
UniProt Q9HC07: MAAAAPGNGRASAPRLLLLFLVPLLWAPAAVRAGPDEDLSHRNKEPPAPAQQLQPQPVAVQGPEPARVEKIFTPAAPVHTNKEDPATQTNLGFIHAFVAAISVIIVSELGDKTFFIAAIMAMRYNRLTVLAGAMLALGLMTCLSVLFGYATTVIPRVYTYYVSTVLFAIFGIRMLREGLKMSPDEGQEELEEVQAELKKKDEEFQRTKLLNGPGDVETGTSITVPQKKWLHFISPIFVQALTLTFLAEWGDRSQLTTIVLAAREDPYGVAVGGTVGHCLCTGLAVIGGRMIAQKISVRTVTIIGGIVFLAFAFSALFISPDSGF
UniProt Q9NR96: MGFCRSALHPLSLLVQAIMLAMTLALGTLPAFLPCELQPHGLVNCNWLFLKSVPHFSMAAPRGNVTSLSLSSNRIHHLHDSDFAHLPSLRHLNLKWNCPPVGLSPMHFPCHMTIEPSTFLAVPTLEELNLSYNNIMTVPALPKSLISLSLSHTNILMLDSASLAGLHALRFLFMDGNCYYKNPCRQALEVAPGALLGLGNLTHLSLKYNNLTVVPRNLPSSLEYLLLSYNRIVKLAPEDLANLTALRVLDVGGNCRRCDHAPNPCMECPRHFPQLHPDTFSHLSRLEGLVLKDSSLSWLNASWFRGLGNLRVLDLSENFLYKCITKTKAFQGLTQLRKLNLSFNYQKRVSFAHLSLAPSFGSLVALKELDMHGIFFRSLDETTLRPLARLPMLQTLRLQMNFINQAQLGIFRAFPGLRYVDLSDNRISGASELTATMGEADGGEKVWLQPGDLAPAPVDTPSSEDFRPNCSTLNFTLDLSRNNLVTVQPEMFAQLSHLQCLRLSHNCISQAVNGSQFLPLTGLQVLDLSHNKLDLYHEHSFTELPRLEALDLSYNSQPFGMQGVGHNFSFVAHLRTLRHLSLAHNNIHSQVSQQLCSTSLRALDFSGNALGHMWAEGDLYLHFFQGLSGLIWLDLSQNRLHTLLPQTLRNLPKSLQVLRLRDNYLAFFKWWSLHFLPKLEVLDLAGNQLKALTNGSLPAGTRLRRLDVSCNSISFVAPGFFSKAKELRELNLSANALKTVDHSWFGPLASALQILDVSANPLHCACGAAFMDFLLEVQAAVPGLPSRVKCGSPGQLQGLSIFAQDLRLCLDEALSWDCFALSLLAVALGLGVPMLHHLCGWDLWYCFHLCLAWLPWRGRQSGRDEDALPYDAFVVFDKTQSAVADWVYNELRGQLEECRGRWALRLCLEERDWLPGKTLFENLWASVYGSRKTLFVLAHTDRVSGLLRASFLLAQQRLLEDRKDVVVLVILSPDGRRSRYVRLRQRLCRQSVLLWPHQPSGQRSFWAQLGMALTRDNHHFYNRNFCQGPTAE
UniProt P49755: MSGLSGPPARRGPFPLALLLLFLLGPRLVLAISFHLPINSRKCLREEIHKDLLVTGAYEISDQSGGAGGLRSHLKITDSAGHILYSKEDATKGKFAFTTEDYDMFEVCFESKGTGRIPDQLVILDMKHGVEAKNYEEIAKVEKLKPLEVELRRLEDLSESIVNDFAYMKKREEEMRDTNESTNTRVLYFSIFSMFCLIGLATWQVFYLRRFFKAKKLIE
UniProt Q9UM00: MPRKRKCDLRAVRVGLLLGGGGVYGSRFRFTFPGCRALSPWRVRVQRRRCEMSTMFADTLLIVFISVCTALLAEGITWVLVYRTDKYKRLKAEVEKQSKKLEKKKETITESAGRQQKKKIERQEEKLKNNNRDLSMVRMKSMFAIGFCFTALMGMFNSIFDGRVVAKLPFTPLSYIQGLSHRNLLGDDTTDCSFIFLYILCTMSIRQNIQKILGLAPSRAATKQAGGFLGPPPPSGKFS
UniProt Q9Y3Q3: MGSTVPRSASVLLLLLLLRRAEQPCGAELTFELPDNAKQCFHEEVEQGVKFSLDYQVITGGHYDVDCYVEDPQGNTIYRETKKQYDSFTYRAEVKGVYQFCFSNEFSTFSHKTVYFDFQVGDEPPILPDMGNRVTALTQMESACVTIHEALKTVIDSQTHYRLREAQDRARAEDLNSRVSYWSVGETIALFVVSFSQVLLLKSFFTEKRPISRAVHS
UniProt Q8N131: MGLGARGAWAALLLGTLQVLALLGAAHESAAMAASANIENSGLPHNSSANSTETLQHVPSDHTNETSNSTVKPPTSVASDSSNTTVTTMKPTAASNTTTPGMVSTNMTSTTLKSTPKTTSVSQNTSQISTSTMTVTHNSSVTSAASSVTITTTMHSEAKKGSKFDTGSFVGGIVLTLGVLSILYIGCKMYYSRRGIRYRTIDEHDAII
UniProt Q9H3N1: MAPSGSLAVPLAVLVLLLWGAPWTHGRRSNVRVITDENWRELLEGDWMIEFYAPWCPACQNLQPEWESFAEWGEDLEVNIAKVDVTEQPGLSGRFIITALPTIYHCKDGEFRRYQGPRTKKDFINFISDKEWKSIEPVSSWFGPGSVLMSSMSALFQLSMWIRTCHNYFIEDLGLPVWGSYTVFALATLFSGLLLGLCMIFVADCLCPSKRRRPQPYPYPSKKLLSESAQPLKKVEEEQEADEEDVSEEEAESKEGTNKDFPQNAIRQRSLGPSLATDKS
UniProt Q9NZR1: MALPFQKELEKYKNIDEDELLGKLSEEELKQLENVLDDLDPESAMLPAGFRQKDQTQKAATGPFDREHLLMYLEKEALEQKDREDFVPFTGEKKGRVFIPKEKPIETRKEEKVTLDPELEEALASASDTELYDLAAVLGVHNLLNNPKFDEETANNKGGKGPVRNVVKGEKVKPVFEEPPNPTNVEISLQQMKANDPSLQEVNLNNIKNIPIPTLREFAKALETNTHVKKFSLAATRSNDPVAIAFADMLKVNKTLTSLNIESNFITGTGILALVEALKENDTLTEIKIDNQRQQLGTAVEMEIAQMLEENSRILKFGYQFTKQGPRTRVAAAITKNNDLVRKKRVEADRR
UniProt Q9Y490: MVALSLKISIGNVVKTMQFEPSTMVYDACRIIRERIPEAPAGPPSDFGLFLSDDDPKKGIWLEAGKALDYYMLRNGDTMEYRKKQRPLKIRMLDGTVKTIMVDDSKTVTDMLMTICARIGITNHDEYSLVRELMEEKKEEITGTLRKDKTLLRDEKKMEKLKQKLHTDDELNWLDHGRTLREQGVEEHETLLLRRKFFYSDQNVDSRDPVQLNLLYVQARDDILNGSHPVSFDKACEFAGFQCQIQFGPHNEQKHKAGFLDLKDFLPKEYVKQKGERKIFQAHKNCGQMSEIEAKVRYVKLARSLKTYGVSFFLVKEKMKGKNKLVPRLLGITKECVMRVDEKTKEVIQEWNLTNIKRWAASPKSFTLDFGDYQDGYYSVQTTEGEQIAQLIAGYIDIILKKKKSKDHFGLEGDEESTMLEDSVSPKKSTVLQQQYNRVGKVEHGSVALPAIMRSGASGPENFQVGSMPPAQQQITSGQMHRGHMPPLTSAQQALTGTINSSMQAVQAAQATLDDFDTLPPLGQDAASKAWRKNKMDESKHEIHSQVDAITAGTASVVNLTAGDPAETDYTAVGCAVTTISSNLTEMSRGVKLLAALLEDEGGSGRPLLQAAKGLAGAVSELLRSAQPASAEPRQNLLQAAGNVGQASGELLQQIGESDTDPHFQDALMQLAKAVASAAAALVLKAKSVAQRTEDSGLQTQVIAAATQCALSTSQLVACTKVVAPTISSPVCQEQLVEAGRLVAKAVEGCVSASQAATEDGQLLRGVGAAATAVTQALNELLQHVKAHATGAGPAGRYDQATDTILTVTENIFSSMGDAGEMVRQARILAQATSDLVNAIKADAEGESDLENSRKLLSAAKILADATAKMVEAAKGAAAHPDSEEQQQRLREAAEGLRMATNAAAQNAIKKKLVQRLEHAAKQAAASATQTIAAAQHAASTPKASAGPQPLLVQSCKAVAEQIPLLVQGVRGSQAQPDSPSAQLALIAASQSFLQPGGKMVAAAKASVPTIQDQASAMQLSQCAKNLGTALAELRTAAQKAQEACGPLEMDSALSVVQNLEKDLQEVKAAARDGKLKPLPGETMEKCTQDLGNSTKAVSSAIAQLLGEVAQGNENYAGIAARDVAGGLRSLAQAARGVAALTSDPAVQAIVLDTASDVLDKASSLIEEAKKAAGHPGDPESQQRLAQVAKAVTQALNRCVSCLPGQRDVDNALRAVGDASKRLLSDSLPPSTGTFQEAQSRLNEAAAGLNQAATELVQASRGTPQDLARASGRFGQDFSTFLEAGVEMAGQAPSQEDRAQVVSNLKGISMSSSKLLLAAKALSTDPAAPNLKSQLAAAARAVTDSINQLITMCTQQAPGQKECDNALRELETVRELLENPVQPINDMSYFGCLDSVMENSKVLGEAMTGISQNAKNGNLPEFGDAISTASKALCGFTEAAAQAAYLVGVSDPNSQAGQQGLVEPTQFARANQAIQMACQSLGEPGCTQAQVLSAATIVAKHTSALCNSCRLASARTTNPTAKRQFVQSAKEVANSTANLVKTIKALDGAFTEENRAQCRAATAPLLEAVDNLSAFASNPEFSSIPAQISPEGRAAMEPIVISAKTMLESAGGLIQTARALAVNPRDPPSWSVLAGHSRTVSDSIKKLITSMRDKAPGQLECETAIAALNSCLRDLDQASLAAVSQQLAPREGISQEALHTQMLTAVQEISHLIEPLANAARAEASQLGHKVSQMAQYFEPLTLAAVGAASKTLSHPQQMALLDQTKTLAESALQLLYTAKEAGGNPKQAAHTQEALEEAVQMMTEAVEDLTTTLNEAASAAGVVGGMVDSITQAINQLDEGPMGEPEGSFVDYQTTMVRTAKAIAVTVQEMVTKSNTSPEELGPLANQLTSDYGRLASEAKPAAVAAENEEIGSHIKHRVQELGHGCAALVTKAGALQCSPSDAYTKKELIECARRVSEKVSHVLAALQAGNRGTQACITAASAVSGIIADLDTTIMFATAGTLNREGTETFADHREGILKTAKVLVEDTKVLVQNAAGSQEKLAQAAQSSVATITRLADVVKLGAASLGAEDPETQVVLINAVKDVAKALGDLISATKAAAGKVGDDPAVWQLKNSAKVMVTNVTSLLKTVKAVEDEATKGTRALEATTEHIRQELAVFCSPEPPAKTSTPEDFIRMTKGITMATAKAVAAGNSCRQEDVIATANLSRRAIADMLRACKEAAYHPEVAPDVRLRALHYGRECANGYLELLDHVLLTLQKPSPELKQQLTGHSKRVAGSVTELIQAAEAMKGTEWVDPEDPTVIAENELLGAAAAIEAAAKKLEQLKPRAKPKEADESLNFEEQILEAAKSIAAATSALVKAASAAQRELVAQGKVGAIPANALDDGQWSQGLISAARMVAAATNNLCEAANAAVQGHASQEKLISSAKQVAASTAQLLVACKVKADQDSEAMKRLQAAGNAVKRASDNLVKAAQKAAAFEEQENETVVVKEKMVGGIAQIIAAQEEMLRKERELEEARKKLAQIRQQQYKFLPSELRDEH
UniProt Q6ZT21: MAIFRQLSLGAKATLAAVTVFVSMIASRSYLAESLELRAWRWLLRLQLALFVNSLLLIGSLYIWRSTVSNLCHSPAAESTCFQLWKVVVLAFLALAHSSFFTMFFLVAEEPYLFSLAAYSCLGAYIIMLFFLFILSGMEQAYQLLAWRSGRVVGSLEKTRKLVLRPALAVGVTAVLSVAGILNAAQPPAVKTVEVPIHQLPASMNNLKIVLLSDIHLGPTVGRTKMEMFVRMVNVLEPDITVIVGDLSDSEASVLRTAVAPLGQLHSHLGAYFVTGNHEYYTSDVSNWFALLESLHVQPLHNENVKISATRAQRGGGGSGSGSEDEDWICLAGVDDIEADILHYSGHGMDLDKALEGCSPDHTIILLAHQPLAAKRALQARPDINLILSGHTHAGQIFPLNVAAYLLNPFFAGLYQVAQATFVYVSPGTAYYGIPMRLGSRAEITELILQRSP
UniProt Q5BJF2, whole entry, looked up: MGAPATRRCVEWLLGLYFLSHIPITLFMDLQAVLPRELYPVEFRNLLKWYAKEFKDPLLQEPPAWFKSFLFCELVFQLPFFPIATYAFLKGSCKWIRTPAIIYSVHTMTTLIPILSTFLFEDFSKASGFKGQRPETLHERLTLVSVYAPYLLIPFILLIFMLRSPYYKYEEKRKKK
UniProt Q96AN5: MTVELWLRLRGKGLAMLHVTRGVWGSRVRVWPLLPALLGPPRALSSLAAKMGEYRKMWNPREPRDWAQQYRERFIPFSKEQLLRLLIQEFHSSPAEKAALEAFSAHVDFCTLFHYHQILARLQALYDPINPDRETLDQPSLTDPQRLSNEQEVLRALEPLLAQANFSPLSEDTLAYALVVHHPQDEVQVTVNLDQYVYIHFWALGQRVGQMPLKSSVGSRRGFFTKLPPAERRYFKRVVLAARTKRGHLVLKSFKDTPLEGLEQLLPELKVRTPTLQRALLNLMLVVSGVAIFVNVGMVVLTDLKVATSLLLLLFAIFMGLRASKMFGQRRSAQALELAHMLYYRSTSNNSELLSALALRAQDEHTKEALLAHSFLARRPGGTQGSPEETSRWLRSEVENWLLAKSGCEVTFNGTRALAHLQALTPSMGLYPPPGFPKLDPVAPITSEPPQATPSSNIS

compound: c1cn2cc(-c3ccc4cn[nH]c4c3)nc(Nc3ccc(N4CCOCC4)cc3)c2n1 [entospletinib]; experiment: log2 fold change, soluble protein after heating vs DMSO (PISA); higher = thermal stabilisation; K562 cells, 10 uM, 30 min; active = over 0.2 and 3.5 SD of the protein, either way, in both replicates (recomputed)
Outline: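 K562 cells at 2×10^6 cells/mL were treated for 30 min with 10 μM compound, and aliquots were heated for 3 min over 48°C-58°C before pooling. Extraction used PBS with 0.5% NP-40 at 4°C, and soluble protein was the supernatant after 21,000xg for 90 min, measured by TMTpro 16plex LC-MS/MS with channel sums equalised. Thermal stability values, relative to control samples and from duplicates, are log2 fold changes.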

log2 fold change, active:
TMEM120A (UniProt Q9BXJ8) -0.404

log2 fold change, inactive:
TMSB10 (UniProt P63313) 0.065, TMEM165 (UniProt Q9HC07) 0.028, TMEM68 (UniProt Q96MH6) 0.04, TLR9 isoform 4 (UniProt Q9NR96) 0.162, TMED10 (UniProt P49755) 0.036, TMEM167A (UniProt Q8TBQ9) 0.013, TMCO1 (UniProt Q9UM00) -0.041, TMED3 (UniProt Q9Y3Q3) -0.08, TMOD1 (UniProt P28289) 0.076, TMEM222 (UniProt Q9H0R3) 0.034, TMOD3 (UniProt Q9NYL9) 0.011, TMEM123 (UniProt Q8N131) 0.003, TMEM189 (UniProt A5PLL7) -0.092, TMPO (UniProt P42167) -0.073, TMEM38B (UniProt Q9NVV0) 0.02, TMX1 (UniProt Q9H3N1) 0.016, TMOD2 (UniProt Q9NZR1) 0.081, TLN1 (UniProt Q9Y490) -0.02, TMPPE (UniProt Q6ZT21) 0.008, TMEM97 (UniProt Q5BJF2) -0.016, TMEM237 isoform 3 (UniProt Q96Q45) 0.013, TMEM143 (UniProt Q96AN5) -0.075
